# Test results taken from PubChem BioAssay AID1347076 (National Center for Advancing Translational Sciences (NCATS), 2019).
# Hit rate of the full screen: of about 400,000 compounds, about 13,000 (3.2%) were called active. The shares of active, inactive and inconclusive entries below differ from those in the screen. Calls come from the whole dose curve; as a rule, active = well fitted cell-killing curve with a large enough effect; inconclusive = small, poorly fitted or top-dose-only effect, or effect the other way; inactive = flat fitted curve, though single readings scatter. Where the call is inconclusive, the potency comes from a doubtful curve fit.
# Test: qHTS assay for MDR1-selective chemotherapeutics: Primary screen using the drug-selected MDR subline cells KB-V1; note: nearly all actives have a fitted effect of over 60% in size
# Conditions: KB-V1 MDR cells viability, CellTiter-Glo, 72 h; activity change, negative = cytotoxicity: at 46.1 µM (top of the series)
# Procedure, shortened: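 Potencies derive from concentration-effect curves fitted to normalized luminescence (CellTiter-Glo) of KB-V1 cells treated for 72 h at 37 degrees C in phenol-red-free DMEM containing 10% FBS.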
# % is set by controls: 0 for no effect and ±100 for the full control effect; potency is the fitted concentration of half-maximal effect.
SMILES,"activity change, negative = cytotoxicity",Potency
Cc1ccc(C)c(S(=O)(=O)N2CCN(C(=O)CN3C(=O)C4CC=CCC4C3=O)CC2)c1 (configuration not stated),inactive: -19%,
CN(C)C=Nc1ncc2c3ccccc3n(CCN(C)C)c2c1C#N,,"inconclusive: 3.66 µM [cytotoxic, partial curve, poor fit]"
CCOC(=O)c1c(C)oc2ncnc(Nc3cccc(C(F)(F)F)c3)c12,,"inconclusive: 9.2 µM [rising, partial curve]"
CC(C)c1ccccc1NC(=O)C1CCCN(C(=O)c2ccc(Cl)cc2)C1 (configuration not stated),,"inconclusive: 14.6 µM [cytotoxic, partial curve, poor fit]"
COC(=O)[C@]12CCCCC=C1N(Cc1ccccc1)C(=O)[C@H](CC(=O)NCc1ccccc1)C2,,"inconclusive: 4.11 µM [cytotoxic, partial curve]"
Cc1cccc(C)c1NC(=O)CN(C)C(=O)c1ccc(-c2cccc(C(F)(F)F)c2)o1,inactive: 0%,
O=C(N/C(=C/c1cccnc1)C(=O)N1CCOCC1)c1ccco1,,"inconclusive: 2.59 µM [rising, partial curve]"
O=c1oc2ccccc2cc1-c1cn2cc(Cc3ccc(F)cc3)sc2n1,inactive: -25.4%,
CC(=O)Nc1ccc(NC(=O)Cn2ccc([N+](=O)[O-])n2)cc1,inactive: 28.3%,
CCCS(=O)(=O)NC(=O)C1(C)CCN(C(=O)C2(c3ccc(Cl)cc3)CCCC2)C1 (configuration not stated),inactive: 0.476%,
CCN(CC)S(=O)(=O)c1ccc(S(=O)(=O)N(Cc2ccccn2)Cc2ccco2)cc1,,"inconclusive: 23.1 µM [cytotoxic, single point]"
CCOc1ccccc1Nc1sc(C(=O)c2ccccc2)c(N)c1C(=O)Nc1ccc(F)cc1,,"inconclusive: 18.4 µM [cytotoxic, single point]"
O=C(Nc1cccc2ncccc12)c1cc([N+](=O)[O-])ccc1Cl,,"inconclusive: 13 µM [cytotoxic, partial curve, poor fit]"
O=C(O)C1CC=CCC1C(=O)N1CC=C(c2ccccc2)CC1 (configuration not stated),,"inconclusive: 29.1 µM [rising, single point]"
CC(=O)Nc1ccc(OCC(O)Cn2c3ccccc3c3ccccc32)c(C)c1 (configuration not stated),,"inconclusive: 20.6 µM [cytotoxic, partial curve, poor fit]"
Cn1c(=O)c2c(nc(SCC(=O)Nc3ccccc3F)n2Cc2ccccc2F)n(C)c1=O,inactive: 0%,
O=C(CSc1nncs1)N1c2ccccc2Sc2ccccc21,,"inconclusive: 8.2 µM [cytotoxic, partial curve, poor fit]"
COc1ccc(NC(=O)c2sc3ncn(CC(=O)N4CCN(c5ccccn5)CC4)c(=O)c3c2C)cc1OC,,"inconclusive: 29.1 µM [rising, single point]"
Cc1nn(CC(=O)NC2CC2)c(=O)c2cc3cc(F)ccc3n12,,"inconclusive: 18.4 µM [rising, single point]"
Cc1ccc(NC(=O)c2ccc3c(c2)NC(=O)c2ccccc2S3)c(Cl)c1,,"inconclusive: 16.4 µM [cytotoxic, single point]"
FC(F)(F)c1nnc2sc(-c3cccs3)nn12,,"inconclusive: 32.6 µM [cytotoxic, single point]"
NC(=O)Cn1nc(C(F)(F)F)c2c1CCCC2,inactive: 0.694%,
CSc1ccc(CCNC(=O)Cn2nc(C)n3c(cc4sccc43)c2=O)cc1,inactive: 23.4%,

SMILES,"activity change, negative = cytotoxicity",Potency
Cc1cc(C(=O)NCCCN2CCOCC2)n(-c2ccccc2)n1,,"inconclusive: 29.1 µM [rising, single point]"
CNS(=O)(=O)c1ccc(C(=O)NCC(=O)NCC2COc3ccccc3O2)cc1 (configuration not stated),,"inconclusive: 9.2 µM [rising, partial curve, poor fit]"
CC1=C(C(=O)N(C)C)CC(CC(=O)NC(c2ccccc2)c2ccccc2)C(=O)N1Cc1ccccc1 (configuration not stated),,"inconclusive: 29.1 µM [cytotoxic, single point]"
COc1ccc(S(=O)(=O)N(CC(=O)NC(C)c2ccccc2)c2ccc(C)cc2)cc1OC (configuration not stated),,"inconclusive: 18.4 µM [cytotoxic, single point]"
CCc1ccc(NC(=O)Cn2nnc(-c3ccccc3N)n2)cc1,inactive: 0.352%,
CCOC(=O)C1=C(CP(=O)(c2ccccc2)c2ccccc2)NC(=O)NC1c1ccc(Cl)cc1 (configuration not stated),,"inconclusive: 18.4 µM [cytotoxic, single point]"
COc1ccc(N2CCN(CCCNC(=O)c3c(C)nn(-c4ccc(F)cc4)c3-n3cccc3)CC2)cc1,,"inconclusive: 9.2 µM [cytotoxic, partial curve, poor fit]"
Cc1ccccc1NC(=O)Cn1nnc(S(=O)(=O)c2ccc(C(C)(C)C)cc2)c1N,inactive: 13.9%,
Cc1cc2c(C)cc(=O)[nH]c2cc1NC(=O)CCl,,"inconclusive: 18.4 µM [cytotoxic, single point]"
CNC(=S)N1CCN(c2ccc([N+](=O)[O-])cc2)CC1,,"inconclusive: 18.4 µM [cytotoxic, single point]"
CCc1c(C)nc2ncnn2c1NCCc1ccc(OC)c(OC)c1,,active: 9.2 µM
O=C(O)CC/C(=N\NC(=O)CNC(=O)/C=C/c1ccccc1)c1ccccc1,,"inconclusive: 20.6 µM [rising, single point]"
CC(NC=C1C(=O)OC(C)(C)OC1=O)C(=O)O (configuration not stated),,"inconclusive: 29.1 µM [rising, single point]"
COC(=O)CC1C(=O)NCCN1C(=O)c1cc([N+](=O)[O-])ccc1Cl (configuration not stated),,"inconclusive: 29.1 µM [rising, single point]"
CC(C)(C)OC(=O)C(C)(C)O/N=C(\C(=O)O)c1csc(N)n1,,"inconclusive: 14.6 µM [rising, single point]"
c1ccc(CCN=C2CCCc3c2[nH]c2ccccc32)cc1,,"inconclusive: 16.4 µM [cytotoxic, partial curve, poor fit]"
COCCCNC(=S)N/N=C/c1ccc(OC)cc1,,"inconclusive: 29.1 µM [cytotoxic, single point]"
O=C(C1CCCN(Cc2ccccc2Br)C1)N1CCCCC1 (configuration not stated),inactive: -29.5%,
Clc1ccc(C2=CSC3=Nc4cccc5cccc(c45)N23)cc1,,"inconclusive: 29.1 µM [cytotoxic, single point]"
COc1ccccc1-c1cc(C(=O)Nc2cc(C)n(Cc3ccc(Cl)cc3)n2)no1,inactive: -2.49%,
O=S(=O)(c1ccc(SCCOc2ccc(F)cc2)nc1)N1CCCC1,,"inconclusive: 29.1 µM [cytotoxic, single point]"
Cc1ccc(NC(=O)CN2c3cccc4cccc(c34)S2(=O)=O)cc1S(=O)(=O)N1CCOCC1,,active: 3.66 µM
C[C@H](CO)N1C[C@H](C)[C@@H](CN(C)Cc2ccccc2)Oc2c(NC(=O)Cc3ccccc3)cccc2C1=O,,"inconclusive: 13 µM [cytotoxic, partial curve, poor fit]"

# Among those listed so far, these have a tert-butyl group.
SMILES,"activity change, negative = cytotoxicity",Potency
Cc1ccccc1NC(=O)Cn1nnc(S(=O)(=O)c2ccc(C(C)(C)C)cc2)c1N,inactive: 13.9%,
CC(C)(C)OC(=O)C(C)(C)O/N=C(\C(=O)O)c1csc(N)n1,,"inconclusive: 14.6 µM [rising, single point]"

# Going on with the list.

SMILES,"activity change, negative = cytotoxicity",Potency
COc1ccc(C(=O)Nc2ccc3ncccc3c2)cc1,,"inconclusive: 18.4 µM [cytotoxic, partial curve]"
COc1ccccc1NC(=O)N1CCN(c2ccc3nnc(-c4ccc(F)cc4)n3n2)CC1,,"inconclusive: 29.1 µM [cytotoxic, single point]"
Cn1c(SCc2nc3ccccc3[nH]2)nnc1-c1cccs1,,active: 20.6 µM
CSc1nc(-c2ccccc2)nc(N2CCN(C)CC2)c1C(C)=O,,"inconclusive: 18.4 µM [cytotoxic, partial curve]"
COC(=O)Oc1c(Br)c(=O)oc2ccccc12,inactive: 5.3%,
COc1ccc(-c2cc(C(F)(F)F)nc(SCC(=O)N(C)Cc3cn(C)nc3C)n2)cc1OC,,active: 18.4 µM
O=C(Cc1sc(Nc2ccccc2)nc1-c1ccccc1)NCc1ccccc1,,"inconclusive: 29.1 µM [cytotoxic, single point]"
O=C(NC(=S)Nc1ccc(Oc2ccc(Cl)cc2)cc1)c1ccccc1,,"inconclusive: 20.6 µM [cytotoxic, partial curve, poor fit]"
CC1=C(C(=O)OCc2ccccc2)C(c2ccccc2OS(=O)(=O)c2ccccc2[N+](=O)[O-])NC(=O)N1CCCC(=O)O (configuration not stated),inactive: 5.24%,
COC(=O)c1ccc(NC(=O)C(=O)N2CCN(C(=S)Nc3cccc(OC)c3)CC2)cc1,,active: 18.4 µM
COc1cc(/C=C2/C(=N)N3C=CSC3=NC2=O)ccc1OCCCOc1c(C)cccc1C,,"inconclusive: 16.4 µM [cytotoxic, partial curve]"
CCn1c(C)c(C2=CCN(S(=O)(=O)c3ccccc3)CC2)c2ccccc21,,active: 10.3 µM
O=C(CSc1nc2ccccc2s1)Nc1ccc(Cl)c(S(=O)(=O)N2CCOCC2)c1,,"inconclusive: 25.9 µM [cytotoxic, partial curve, poor fit]"
Cc1cccc(-n2ncc3c2CCCC3NC(=O)C2CCOCC2)c1C (configuration not stated),,"inconclusive: 6.51 µM [cytotoxic, partial curve]"
CSc1ncnc2c1ncn2CC(=O)C1CCC2C3CCC4=CC(=O)CCC4(C)C3CCC12C (configuration not stated),,active: 23.1 µM
CCOC(=O)CSc1nc2ccccc2c(=O)n1-c1ccc(C(=O)NCCOC)cc1,,"inconclusive: 5.8 µM [cytotoxic, full curve]"
O=C1c2cccc3cccc(c23)C(=O)N1CCN1CCN(C(=S)Nc2ccccc2)CC1,,active: 18.4 µM
CN1CCN(C(=O)CCCN2C(=O)/C(=C/c3ccc(Cl)cc3)SC2=S)CC1,,"inconclusive: 3.26 µM [cytotoxic, full curve]"
CCN1CCc2c(OCc3ccccc3)cccc2C1=O,,"inconclusive: 16.4 µM [cytotoxic, partial curve]"
CCc1nc2c(OCC(=O)c3ccc(Cl)cc3Cl)cccn2c1N(C)C(=O)c1ccncc1,inactive: 3.72%,
Cc1ccc(S(=O)(=O)CCC(=O)OCC(=O)NCC(=O)Nc2c(C)cc(C)cc2C)cc1,,"inconclusive: 29.1 µM [rising, single point]"
